# Data reported in the odorant receptor screen of Mainland et al. (2015).
# Where “and” joins values, the source holds several entries; their conditions need not be identical. Equal entries are not always repeated. The list shows a part of the results. Single wells; the ratio to wells without odorant was worked out here, and repeats agree poorly.
# Test system: OR2S2 clone 1462
# Assay: odorant receptor activation (CRE luciferase / Renilla) (fold of no-odor wells); higher = more activation
# Settings: 100 µM
row,SMILES,odorant receptor activation
1,O=CCc1ccccc1 [phenyl acetaldehyde],1.19
2,CC(C)=CCCC(C)=CC=O [citral],0.853
3,"CC1CCC(C(C)C)C(O)C1 (single isomer, unassigned; (+)) [(+)-menthol]",1.03
4,c1cnccn1 [pyrazine],0.851
5,CCCCCCCCC=O [nonyl aldehyde],0.963
6,CC(=O)C(C)=O [diacetyl],1.35
7,CCCCCC(C)=O [2-heptanone],0.963 and 0.706
8,C=CC(C)(O)CCC=C(C)C (configuration not stated) [linalool],0.85
9,CC(C)C=O [isobutyraldehyde],0.97 and 1.13
10,CCCC(=O)O [butyric acid],0.764
11,CC12C=CCC1C1CCC3CC(=O)CCC3(C)C1CC2 (configuration not stated) [androstenone],1.02
12,CC(=O)c1ccccc1 [acetophenone],0.958 and 0.867
13,CCCCCCCC=O [octyl aldehyde],1.08
14,CC(=O)OC(C)(C)C1CC=C(C)CC1 (configuration not stated) [terpinyl acetate],1.1
15,CCCCCCCCOC(C)=O [octyl acetate],0.761
16,CCCCCCCCCCC=O [undecanal],1.15
17,CCCCCCCOC(C)=O [heptyl acetate],0.939 and 1.59
18,O=C1CCCCCCCCCCCCCCO1 [pentadecalactone],1.01
19,CC1=NC(C)SC1C (configuration not stated),0.934 and 1.12
20,COc1cc(C)ccc1O [2-methoxy-4-methylphenol],0.984
21,COC(=O)c1ccccc1O [methyl salicylate],0.958
22,O=C1CCCCCCCCCCCC(=O)OCCO1 [ethylene brassylate],1.65

# 2 compounds picked at random from the list so far:
row,SMILES,odorant receptor activation
17,CCCCCCCOC(C)=O [heptyl acetate],0.939 and 1.59
8,C=CC(C)(O)CCC=C(C)C (configuration not stated) [linalool],0.85
